# Measurements from paper PMC6134199.
# Sequences of proteins named here, by UniProt entry; tags and fusion partners are left off.
# UniProt P00579: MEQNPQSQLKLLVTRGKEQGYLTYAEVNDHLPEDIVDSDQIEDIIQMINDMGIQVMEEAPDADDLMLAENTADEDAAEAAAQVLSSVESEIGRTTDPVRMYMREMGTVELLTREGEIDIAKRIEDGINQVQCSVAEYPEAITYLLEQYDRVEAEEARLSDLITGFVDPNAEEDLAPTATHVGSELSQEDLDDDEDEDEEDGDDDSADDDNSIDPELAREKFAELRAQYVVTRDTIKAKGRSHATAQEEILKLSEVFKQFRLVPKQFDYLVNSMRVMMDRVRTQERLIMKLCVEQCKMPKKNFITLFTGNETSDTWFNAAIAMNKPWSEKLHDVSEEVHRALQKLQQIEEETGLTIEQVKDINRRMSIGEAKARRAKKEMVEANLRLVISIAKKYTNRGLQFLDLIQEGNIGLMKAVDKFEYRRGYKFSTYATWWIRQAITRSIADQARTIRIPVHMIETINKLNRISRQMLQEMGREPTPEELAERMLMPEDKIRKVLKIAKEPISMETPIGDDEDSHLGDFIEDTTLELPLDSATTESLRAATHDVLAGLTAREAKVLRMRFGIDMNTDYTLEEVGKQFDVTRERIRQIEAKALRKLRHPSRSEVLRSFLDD
# No constants are given. Whether binding was seen depends on the method and setting. Binding seen in cells or lysates may run through a third protein. Some binding calls cover weakened binding; strength is not graded here.
# B1: anti-sigma factor Rsd (regulator of sigma D) (protein, UniProt P0AFX4 1-158)
# chain: MLNQLDNLTERVRGSNKLVDRWLHVRKHLLVAYYNLVGIKPGKESYMRLNEKALDDFCQSLVDYLSAGHFSIYERILHKLEGNGQLARAAKIWPQLEANTQQIMDYYDSSLETAIDHDNYLEFQQVLSDIGEALEARFVLEDKLILLVLDAARVKHPA
# Biological target: His-tagged RpoD sigma factor (E. coli K-12) (UniProt P00579)
# Test: pull-down; His-tagged RpoD expressed in wild-type and arcA, mcbR, rcdA, sdiA or slyA deletion strains; lysate (50 mM Tris-HCl pH 8.0, 150 mM NaCl, 10% glycerol) applied to Ni-NTA agarose, washed, eluted with 200 mM imidazole; Rsd in the eluate detected by immunoblot with anti-Rsd antiserum
binder,measurement,value
B1,binding,binds
